Experimental findings from paper PMC10163288 are described below.

This is one part of the list.

First the molecules themselves.
B1: il10ra_site1_normal_mot_HHH_b2_01649_af2_000000191_0001_40_56_H_._HHH_b1_07449_0001_0000100004_0000002_0 (protein)
chain: SSSSDSEVAYRFHKELAEEALKLGNREEAEKILRAAIEALRRLNDEELVEELEELLEEVRGSSSS
B2: il10ra_site1_normal_mot_HHH_b1_04708_000000014_0001_1_19_H_._HHH_b1_05863_0001_0000200030_0000001_1 (protein)
chain: SSSSTLEEAVRFTLEVIRQRIELGDEEHARFIIEVLERAIREAGDEELLEELERLLEELNSSSSS
B3: il10ra_site1_sap_17_mot_HHH_b2_08265_af2_000000206_0001_22_38_H_._HHH_b2_05578_af2_0001_0000200017_0000001_0_0001 (protein)
chain: SSSSDVEEEAKELTREAEELAKELGNRAVLFLLRQLLEAIELSGDPKALEMLESLFKTLEGSSSS
B4: il10ra_site1_sap_14_mot_HHH_b2_07442_000000239_0001_40_54_H_._HHH_b1_06878_0001_0000300020_0000001_0_0001 (protein)
chain: SSSSDESRELFELSEEAARLLTEGNPEEAEEVLEEAEKIAKERGSRVILKALEHLLRAIRSSSSS
B5: il10ra_site1_normal_mot_HHH_b1_04100_af2_000000180_0001_1_19_H_._HHH_b2_02890_0002_0000300020_0000002_0_af2pred_0001 (protein)
chain: SSSSSVAEKAVRILLKAARQIEDPEAVKLTLRDAKAAARANNNEELEREIEEVERELKELLSSSS
B6: il10ra_site1_normal_mot_HHH_b1_02997_000000220_0001_39_52_H_._HHH_b1_06167_0001_0000500039_0000002_0_af2pred_0001 (protein)
chain: SSSSSEEAHRLFELSRRAIELLADGNPEEAEEVVEEALELARELGNEVLRVVLEFLLEQIRSSSS
B7: il10ra_site1_sap_17_mot_HHH_b2_03425_000000200_0001_22_39_H_._HHH_b2_02312_af2_0001_0000700072_0000001_1_0001 (protein)
chain: SSSSSDESFEAVRKAIEEALELWRRGNPEEAREVLEEAIEFVRERGDWAAKFALKHLAELLSSSS
B8: il10ra_site1_sap_20_mot_HHH_b1_01886_000000262_0001_1_18_H_._HHH_b1_05552_af2_0001_0000500031_0000001_0_0001_af2pred_0001 (protein)
chain: SSSSSDEEEVRKRAEELFERAEKVSPEEVKRILHEIVELAKEYEDLEVARLASELLELSSSSSSS
B9: il10ra_site1_sap_21_mot_HHH_b2_04050_000000291_0001_1_20_H_._HHH_b2_06391_af2_0001_0000100001_0000001_1_0001 (protein)
chain: SSSSSDEEYEERVEELLEEAEKIPDPRERSHVLLRAVQLAFHGQDPELVRAVWRVFEKLFSSSSS
B10: il10ra_site1_normal_mot_HHH_b1_05357_000000034_0001_23_39_H_._HHH_b2_03756_0001_0000100003_0000001_0 (protein)
chain: SSSSDEEEEVEELLRRAEELAKEGDRRRVSHLLIRAYAVASRLGDPELERLVREVARRLLSSSSS
B11: il10ra_site1_sap_16_mot_HHH_b2_05343_000000235_0001_19_35_H_._b5d408fb59e05adbbadd706aaa09cbfb_0001_af2_0001_0000900021_0000001_0_0001 (protein)
chain: SSSSTDAQEVFELIREAVELLTEGDPEEAEEVLKKARELAEELGDRLLEWQIEFLERLIRSSSSS
B12: il10ra_site1_sap_21_mot_HHH_b1_05254_000000006_0001_1_19_H_._HHH_b1_07705_0001_0000100013_0000001_0_0001 (protein)
chain: SSSSSSEEEVEELIKEARELLENGDPERAAKVLQRAIRLAFELGDAELLQRIWELLARQRSSSSS
B13: il10ra_site1_normal_mot_HHH_b1_04940_000000219_0001_1_18_H_._HHH_b2_07435_0001_0000400043_0000001_1_af2pred_0001 (protein)
chain: SSSSDEELLKKTIEVAKRLLEHGDEEAARRLLRAALDIAERLNDEEVVRELRELLEEIENSSSSS
B14: il10ra_site1_sap_20_mot_HHH_b2_06199_000000213_0001_1_17_H_._70c42a40e9bcf7739a80f3883b181487_0001_1_0001_0000200014_0000002_0_0001 (protein)
chain: SSSSDEESRRVMELIEEATELAQRGDPEQAREVLEEALELARELGNLLMEWQLEWLLELLSSSSS
B15: il10ra_site1_sap_18_mot_HHH_b1_04070_000000068_0001_43_55_H_._0803d6617dd33f2871c335afc9275591_0001_0001_0000100024_0000001_0_0001 (protein)
chain: SSSSSDEQERLLELMQQAFRLALRGDPEEAREVLEEALELAEELGDERAKRMIRDLLKSLSSSSS
B16: il10ra_site1_normal_mot_HHH_b1_08513_000000269_0001_42_56_H_._HHH_b1_07453_0001_0000300026_0000001_0 (protein)
chain: SSSSSSSEEEIEELLKEIERSTDPEELHKLLRKVAELASELNDEELYRRVLELSQEFINSSSSSS
B17: il10ra_site1_sap_12_mot_8756ee2cf497b5429c717dfc0c0bcfd6_0001_000000186_0001_1_13_H_._HHH_b2_01371_af2_0001_0000500020_0000001_1_0001 (protein)
chain: SSSSNTLEWSVRFALKHAEELLEEGDEEKAKILLEAILRHVRQAKNEELLEEIERLLEEVRSSSS
B18: il10ra_site1_normal_mot_HHH_b2_00984_000000042_0001_1_20_H_._HHH_b2_02613_af2_0001_0000700025_0000001_0 (protein)
chain: SSSSSTEEEIEELIKKAEEAAENGDPRKAFELLAEASRYALELGDAELLQEIWELIKKLNSSSSS

The target of this assay is il10ra, Q13651. In words: yeast display titration.
Take B1: the “apparent Kd” value is “inactive: no binding seen”.

For B2, the “apparent Kd” value was “inactive: no binding seen”. Consider B3, for which the “apparent Kd” value is “inactive: no binding seen”. Turning to B4, the “apparent Kd” value is “inactive: no binding seen”.

For the molecule B5, the “apparent Kd” value is “inactive: no binding seen”.

As to B6, the “apparent Kd” value is “inactive: no binding seen”.

Regarding B7, the “apparent Kd” value was “inactive: no binding seen”.

As to B8, the “apparent Kd” value was “inactive: no binding seen”. To B9 belongs “inactive: no binding seen”; to B10, “inactive: no binding seen”; to B11, “inactive: no binding seen”. As for B12, the “apparent Kd” value was “inactive: no binding seen”.

For B13, the “apparent Kd” value is “inactive: no binding seen”. Take B14: the “apparent Kd” value is “inactive: no binding seen”.

As to B15, the “apparent Kd” value is “inactive: no binding seen”. As to B16, the “apparent Kd” value is “inactive: no binding seen”. Regarding B17, the “apparent Kd” value is “inactive: no binding seen”.

As for B18, the “apparent Kd” value was “inactive: no binding seen”.
